Test [1] addresses HPV16 E7 oncoprotein fused to the Gluc2 fragment of Gaussia princeps luciferase (pSPICA-N2-E7) (HPV16) (UniProt P03129). The test is described as follows: split reporter.
Test [2] addresses HPV8 E7 fused to Gluc2 (pSPICA-N2-E7) (HPV8) (UniProt P06430). The test is described as follows: split reporter.
Test [3] deals with T1, HPV39 E7 fused to Gluc2 (pSPICA-N2-E7) (HPV39) (UniProt P24837).
T1 sequence: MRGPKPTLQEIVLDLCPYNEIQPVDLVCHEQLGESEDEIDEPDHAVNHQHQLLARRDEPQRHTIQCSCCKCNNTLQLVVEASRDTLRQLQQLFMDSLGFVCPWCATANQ
Put plainly: split reporter.

Sequences of proteins named here, by UniProt entry; tags and fusion partners are left off. A change or cut given only in a name is not applied to a line headed by its entry. A line that says so, or that is headed by a name, gives the form on record, which may keep a tag or linker. Residues count along the entry.
UniProt P03129: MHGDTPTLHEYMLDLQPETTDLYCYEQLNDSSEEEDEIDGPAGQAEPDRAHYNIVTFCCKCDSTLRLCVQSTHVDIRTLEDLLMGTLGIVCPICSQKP
HPV16 E7 C-terminal domain (37-98 amino acids) fused to Gluc2: residues 37-98 of P03129
UniProt P06430: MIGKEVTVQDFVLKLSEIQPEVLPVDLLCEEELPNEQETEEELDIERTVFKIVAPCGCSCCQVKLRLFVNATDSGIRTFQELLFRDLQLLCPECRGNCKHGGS
UniProt P06788: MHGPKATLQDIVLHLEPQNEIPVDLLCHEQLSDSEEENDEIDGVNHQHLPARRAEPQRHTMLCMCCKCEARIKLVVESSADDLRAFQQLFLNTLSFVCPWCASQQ
UniProt Q9Y6K9: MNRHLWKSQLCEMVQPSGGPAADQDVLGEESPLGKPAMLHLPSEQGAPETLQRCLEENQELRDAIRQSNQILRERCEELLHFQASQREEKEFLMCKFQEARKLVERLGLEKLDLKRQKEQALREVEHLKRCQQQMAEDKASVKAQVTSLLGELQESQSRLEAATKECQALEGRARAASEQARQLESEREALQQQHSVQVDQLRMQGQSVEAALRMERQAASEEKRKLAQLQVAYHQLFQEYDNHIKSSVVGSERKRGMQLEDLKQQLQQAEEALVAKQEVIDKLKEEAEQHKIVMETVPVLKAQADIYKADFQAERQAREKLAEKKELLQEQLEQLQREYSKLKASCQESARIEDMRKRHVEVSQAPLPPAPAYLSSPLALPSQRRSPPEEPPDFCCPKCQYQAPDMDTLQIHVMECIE
UniProt P48729: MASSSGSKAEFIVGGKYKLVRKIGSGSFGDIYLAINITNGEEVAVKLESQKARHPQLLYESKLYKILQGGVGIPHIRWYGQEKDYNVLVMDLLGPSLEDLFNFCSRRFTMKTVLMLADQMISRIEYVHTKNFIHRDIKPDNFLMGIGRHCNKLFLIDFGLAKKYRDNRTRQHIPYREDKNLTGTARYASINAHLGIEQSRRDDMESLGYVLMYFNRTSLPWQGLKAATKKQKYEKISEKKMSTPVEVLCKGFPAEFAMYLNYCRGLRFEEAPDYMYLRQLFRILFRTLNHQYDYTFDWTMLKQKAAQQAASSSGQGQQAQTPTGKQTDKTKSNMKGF
UniProt Q9Y297: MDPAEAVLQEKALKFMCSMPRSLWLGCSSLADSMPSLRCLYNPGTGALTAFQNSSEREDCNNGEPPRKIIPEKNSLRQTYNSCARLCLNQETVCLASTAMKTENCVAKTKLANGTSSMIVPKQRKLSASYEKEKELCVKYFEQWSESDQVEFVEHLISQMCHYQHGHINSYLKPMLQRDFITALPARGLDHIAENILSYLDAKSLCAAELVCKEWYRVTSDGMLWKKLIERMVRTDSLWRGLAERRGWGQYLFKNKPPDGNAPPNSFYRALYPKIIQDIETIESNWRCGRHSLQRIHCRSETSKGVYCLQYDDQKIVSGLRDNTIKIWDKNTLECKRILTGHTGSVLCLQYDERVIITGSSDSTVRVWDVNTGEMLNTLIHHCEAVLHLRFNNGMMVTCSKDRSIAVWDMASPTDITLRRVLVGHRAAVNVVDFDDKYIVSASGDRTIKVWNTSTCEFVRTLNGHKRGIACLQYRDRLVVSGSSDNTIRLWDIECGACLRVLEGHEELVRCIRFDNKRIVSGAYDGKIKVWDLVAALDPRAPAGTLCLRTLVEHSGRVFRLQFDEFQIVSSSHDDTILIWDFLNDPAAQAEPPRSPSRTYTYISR
UniProt Q9HCP0: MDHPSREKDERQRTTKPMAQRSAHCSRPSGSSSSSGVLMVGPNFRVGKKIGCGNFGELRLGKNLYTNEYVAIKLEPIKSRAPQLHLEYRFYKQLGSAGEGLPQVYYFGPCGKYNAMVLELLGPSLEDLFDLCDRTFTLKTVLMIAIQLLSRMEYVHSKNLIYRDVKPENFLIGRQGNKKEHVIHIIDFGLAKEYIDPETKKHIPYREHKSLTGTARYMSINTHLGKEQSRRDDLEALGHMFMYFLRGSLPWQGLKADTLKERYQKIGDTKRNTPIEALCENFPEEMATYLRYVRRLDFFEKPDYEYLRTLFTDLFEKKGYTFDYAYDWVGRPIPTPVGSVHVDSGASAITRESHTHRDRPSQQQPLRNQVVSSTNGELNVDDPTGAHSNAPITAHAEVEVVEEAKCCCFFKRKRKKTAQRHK
UniProt P78368: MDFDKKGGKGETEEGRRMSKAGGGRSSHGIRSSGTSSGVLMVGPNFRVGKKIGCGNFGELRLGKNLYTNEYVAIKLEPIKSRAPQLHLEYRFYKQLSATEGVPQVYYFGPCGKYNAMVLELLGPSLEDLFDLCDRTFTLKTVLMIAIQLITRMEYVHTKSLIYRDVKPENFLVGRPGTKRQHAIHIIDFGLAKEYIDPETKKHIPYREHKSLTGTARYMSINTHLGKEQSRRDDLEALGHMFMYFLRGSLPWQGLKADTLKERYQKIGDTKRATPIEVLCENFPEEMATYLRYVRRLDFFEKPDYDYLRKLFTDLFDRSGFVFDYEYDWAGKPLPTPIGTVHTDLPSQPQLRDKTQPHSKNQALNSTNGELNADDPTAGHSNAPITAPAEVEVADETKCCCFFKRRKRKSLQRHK
UniProt Q9Y6M4: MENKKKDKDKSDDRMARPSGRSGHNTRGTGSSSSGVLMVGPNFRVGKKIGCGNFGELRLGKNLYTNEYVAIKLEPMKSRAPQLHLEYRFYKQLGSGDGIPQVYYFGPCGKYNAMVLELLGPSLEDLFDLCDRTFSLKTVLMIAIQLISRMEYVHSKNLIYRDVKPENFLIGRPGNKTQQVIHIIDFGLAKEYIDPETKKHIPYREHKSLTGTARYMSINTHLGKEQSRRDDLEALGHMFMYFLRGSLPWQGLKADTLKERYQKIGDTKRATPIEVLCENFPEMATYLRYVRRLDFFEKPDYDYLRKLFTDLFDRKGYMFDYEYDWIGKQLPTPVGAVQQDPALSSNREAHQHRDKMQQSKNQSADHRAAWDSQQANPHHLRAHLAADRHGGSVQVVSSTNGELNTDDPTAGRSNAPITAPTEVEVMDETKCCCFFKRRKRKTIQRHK
UniProt P49841: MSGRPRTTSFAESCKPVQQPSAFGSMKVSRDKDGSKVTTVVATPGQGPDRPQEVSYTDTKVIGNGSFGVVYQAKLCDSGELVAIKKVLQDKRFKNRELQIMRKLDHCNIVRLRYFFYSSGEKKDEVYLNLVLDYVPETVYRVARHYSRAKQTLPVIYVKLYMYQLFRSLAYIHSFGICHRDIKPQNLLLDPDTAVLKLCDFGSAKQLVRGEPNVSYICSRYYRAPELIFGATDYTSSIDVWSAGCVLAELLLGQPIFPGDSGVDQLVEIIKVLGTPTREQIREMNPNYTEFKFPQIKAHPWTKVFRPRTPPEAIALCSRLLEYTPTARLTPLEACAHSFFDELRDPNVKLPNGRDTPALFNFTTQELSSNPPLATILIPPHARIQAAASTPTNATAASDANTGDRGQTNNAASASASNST

In test [4] the target is HPV18 E7 fused to Gluc2 (pSPICA-N2-E7) (HPV18) (UniProt P06788). Put plainly: split reporter.
Test [5] addresses T2, HPV33 E7 fused to Gluc2 (pSPICA-N2-E7) (HPV33) (UniProt P06429).
T2 sequence: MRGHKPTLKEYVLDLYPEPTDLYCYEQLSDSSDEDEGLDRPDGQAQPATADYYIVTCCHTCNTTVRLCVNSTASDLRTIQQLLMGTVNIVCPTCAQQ
The test is described as follows: split reporter.

The target in test [6] is NEMO (IKK regulatory subunit) fused to the Gluc1 fragment of G. princeps luciferase (pSPICA-N1) (human) (UniProt Q9Y6K9). Put plainly: co-IP.
Test [7] addresses Casein Kinase 1 alpha (CK1α1) fused to Gluc1 (pSPICA-N1) (human) (UniProt P48729). Put plainly: co-IP.
The target of test [8] is ubiquitin E3 ligase β-TrCP fused to Gluc1 (pSPICA-N1) (human) (UniProt Q9Y297). Put plainly: co-IP.
Test [9] addresses FLAG-HPV16 E7 (pCineo-3xFLAG) (HPV16) (UniProt P03129). The test is described as follows: co-IP.
For test [10], the target named is FLAG-HPV18 E7 (pCineo-3xFLAG) (HPV18) (UniProt P06788). The test is described as follows: co-IP.
For test [11], the target named is FLAG-HPV8 E7 (pCineo-3xFLAG) (HPV8) (UniProt P06430). Put plainly: co-IP.
Test [12] concerns the target HPV16 E7 C-terminal domain (37-98 amino acids) fused to Gluc2 (HPV16) (UniProt P03129). The test is described as follows: split reporter.

No constants are given. Whether binding was seen depends on the method and setting. In cells and extracts the contact can be indirect. Some entries that bind do so weakly or less than the wild type. For some of these results: Where a sequence is shown, tags or fusion partners need not be part of it.

In the case of “Casein Kinase 1 gamma 1 (CK1γ1) fused to Gluc1 (pSPICA-N1) (from UniProt Q9HCP0 1-422) (enzyme)”, the binding result in test [1], in [2], in test [3], in test [4] and in [5] was “binds” throughout.

For the substance “Casein Kinase 1 gamma 2 (CK1γ2) fused to Gluc1 (pSPICA-N1) (from UniProt P78368 1-415) (enzyme)”, the binding entry in test [1], in test [2], in test [3], in test [4] and in [5] was “binds” each time.

Take “FLAG-HPV16 E7 (pCineo-3xFLAG) (from UniProt P03129 1-98)”: the binding result in test [6], in [7] and in test [8] was “binds” each time.

As to “Casein Kinase 1 gamma 3 (CK1γ3) fused to Gluc1 (pSPICA-N1) (from UniProt Q9Y6M4 1-447) (enzyme)”, the binding result in test [1], in [2], in test [3], in [4] and in test [5] was “binds” in each case.

For “GSK3β fused to Gluc1 (pSPICA-N1) (from UniProt P49841 1-420) (enzyme)”, the binding entry in test [1] was “no binding”.

For “ubiquitin E3 ligase β-TrCP fused to Gluc1 (pSPICA-N1) (from UniProt Q9Y297 1-605)”, the binding entry in test [9], in test [1], in test [2], in test [3], in [4] and in [5] was “binds” in each case.

With “NEMO (IKK regulatory subunit) fused to the Gluc1 fragment of G. princeps luciferase (pSPICA-N1) (from UniProt Q9Y6K9 1-419)”, the binding entry in [9], in test [10], in test [11], in test [1], in test [2] and in test [3] was “binds” each time. Further, the binding entry in test [12], in [4] and in test [5] was “binds” in each case.

The values are drawn from article PMC8885657, “HPV infection alters vaginal microbiome through down-regulating host mucosal innate peptides used by Lactobacilli as amino acid sources” (Nature Communications, 2022).
